Test results taken from US8940871 (University of California, dated 2015).
No constants are given. Whether binding was seen depends on the method and setting. Some binding calls cover weakened binding; strength is not graded here. For part of these data: Tags and fused reporters may be left off the sequences shown.

T1: PSCA on cells (PSCA-transfected B-cell line, LNCaP prostate cancer cells, SKW-PSCA+ cells) (human) (UniProt O43653)
T1 sequence (looked up): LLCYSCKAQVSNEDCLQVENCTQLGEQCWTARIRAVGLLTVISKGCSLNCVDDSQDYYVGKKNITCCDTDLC

T2: purified PSCA-Fc (UniProt O43653 12-86)
T2 construct: The construct is described only by a literature citation; not shown: Fc part not described
T2 sequence (looked up): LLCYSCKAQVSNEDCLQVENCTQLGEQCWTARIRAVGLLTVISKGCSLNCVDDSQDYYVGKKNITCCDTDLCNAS


Legend:
[1] = molecular target: T1, PSCA on cells (PSCA-transfected B-cell line, LNCaP prostate cancer cells, SKW-PSCA+ cells) (human); assay: flow cytometry on PSCA-positive cells [sheet 2]
[2] = molecular target: T1, PSCA on cells (PSCA-transfected B-cell line, LNCaP prostate cancer cells, SKW-PSCA+ cells) (human); assay: immunofluorescence microscopy on antigen-positive cells
[3] = molecular target: T1, PSCA on cells (PSCA-transfected B-cell line, LNCaP prostate cancer cells, SKW-PSCA+ cells) (human); assay: immunofluorescence microscopy and FACS on PSCA-positive cells
[4] = molecular target: T1, PSCA on cells (PSCA-transfected B-cell line, LNCaP prostate cancer cells, SKW-PSCA+ cells) (human); assay: flow cytometry and immunofluorescence on PSCA-expressing cells
[5] = molecular target: T1, PSCA on cells (PSCA-transfected B-cell line, LNCaP prostate cancer cells, SKW-PSCA+ cells) (human); assay: immunofluorescence microscopy on antigen-positive cells [sheet 1]
[6] = molecular target: T1, PSCA on cells (PSCA-transfected B-cell line, LNCaP prostate cancer cells, SKW-PSCA+ cells) (human); assay: immunofluorescence microscopy on non-permeabilized LNCaP cells; Alexa488 goat anti-human IgG
purified PSCA-Fc = molecular target: T2, purified PSCA-Fc; assay: competition ELISA on plates coated with PSCA-Fc; the labelled competitor is not named [sheet 2]
[7] = molecular target: T1, PSCA on cells (PSCA-transfected B-cell line, LNCaP prostate cancer cells, SKW-PSCA+ cells) (human); assay: flow cytometry on a B-cell line stably transfected to express PSCA; minibody at 2 ug/ml, goat anti-hFc Alexa 488
[8] = molecular target: T1, PSCA on cells (PSCA-transfected B-cell line, LNCaP prostate cancer cells, SKW-PSCA+ cells) (human); assay: flow cytometry on PSCA-expressing LNCaP human prostate cancer cells; minibody at 2 ug/ml, goat anti-hFc Alexa 488
[9] = molecular target: T1, PSCA on cells (PSCA-transfected B-cell line, LNCaP prostate cancer cells, SKW-PSCA+ cells) (human); assay: FACS on PSCA-positive cells
[10] = molecular target: T1, PSCA on cells (PSCA-transfected B-cell line, LNCaP prostate cancer cells, SKW-PSCA+ cells) (human); assay: immunofluorescence on PSCA-positive prostate cancer cell lines
[11] = molecular target: T1, PSCA on cells (PSCA-transfected B-cell line, LNCaP prostate cancer cells, SKW-PSCA+ cells) (human); assay: flow cytometry on PSCA-positive cells (cell line not named on the sheet) [sheet 2]

Row | binding [1] | binding [2] | binding [3] | binding [4] | binding [5] | binding [6] | binding (purified PSCA-Fc) | binding [7] | binding [8] | binding [9] | binding [10] | binding [11] | Binder
1 | binds | binds | binds | binds | binds | binds | binds | binds | binds | – | – | – | humanized anti-PSCA minibody (2B3 scFv-CH3 dimer) (other, Covalent dimer of about 95 kDa; also called 2B3 minibody; parental minibody) DIQLTQSPSSLSASVGDRVTITCSASSSVRFIHWYQQKPGKAPKRLIYDTSKLASGVPSRFSGSGSGTDFTLTISSLQPEDFATYYCQQWSSSPFTFGQGTKVEIKGSTSGGGSGGGSGGGGSSEVQLVESGGGLVQPGGSLRLSCAASGFNIKDYYIHWVRQAPGKGLEWVAWIDPENGDTEFVPKFQGRATISADTSKNTAYLQMNSLRAEDTAVYYCKTGGFWGQGTLVTVSSEPKSCDKTHTCPPCGGGSSGGGSGGQPREPQVYTLPPSRDELTKNQVSLTCLVKGFYPSDIAVEWESNGQPENNYKTTPPVLDSDGSFFLYSKLTVDKSRWQQGNVFSCSVMHEALHNHYTQKSLSLSPGK
2 | – | – | – | – | – | – | – | – | – | binds | binds | binds | parental 2B3 anti-PSCA diabody (scFv dimer, eight amino acid linker) (scFv, also called parental diabody; 2B3 diabody) scFv: DIQLTQSPSSLSASVGDRVTITCSASSSVRFIHWYQQKPGKAPKRLIYDTSKLASGVPSRFSGSGSGTDFTLTISSLQPEDFATYYCQQWSSSPFTFGQGTKVEIKGGGSGGGSEVQLVESGGGLVQPGGSLRLSCAASGFNIKDYYIHWVRQAPGKGLEWVAWIDPENGDTEFVPKFQGRATISADTSKNTAYLQMNSLRAEDTAVYYCKTGGFWGQGTLVTVSS
